Consider 2 substances from article PMC2522278.

Sequences of proteins named here, by UniProt entry; tags and fusion partners are left off.
UniProt Q8TB72: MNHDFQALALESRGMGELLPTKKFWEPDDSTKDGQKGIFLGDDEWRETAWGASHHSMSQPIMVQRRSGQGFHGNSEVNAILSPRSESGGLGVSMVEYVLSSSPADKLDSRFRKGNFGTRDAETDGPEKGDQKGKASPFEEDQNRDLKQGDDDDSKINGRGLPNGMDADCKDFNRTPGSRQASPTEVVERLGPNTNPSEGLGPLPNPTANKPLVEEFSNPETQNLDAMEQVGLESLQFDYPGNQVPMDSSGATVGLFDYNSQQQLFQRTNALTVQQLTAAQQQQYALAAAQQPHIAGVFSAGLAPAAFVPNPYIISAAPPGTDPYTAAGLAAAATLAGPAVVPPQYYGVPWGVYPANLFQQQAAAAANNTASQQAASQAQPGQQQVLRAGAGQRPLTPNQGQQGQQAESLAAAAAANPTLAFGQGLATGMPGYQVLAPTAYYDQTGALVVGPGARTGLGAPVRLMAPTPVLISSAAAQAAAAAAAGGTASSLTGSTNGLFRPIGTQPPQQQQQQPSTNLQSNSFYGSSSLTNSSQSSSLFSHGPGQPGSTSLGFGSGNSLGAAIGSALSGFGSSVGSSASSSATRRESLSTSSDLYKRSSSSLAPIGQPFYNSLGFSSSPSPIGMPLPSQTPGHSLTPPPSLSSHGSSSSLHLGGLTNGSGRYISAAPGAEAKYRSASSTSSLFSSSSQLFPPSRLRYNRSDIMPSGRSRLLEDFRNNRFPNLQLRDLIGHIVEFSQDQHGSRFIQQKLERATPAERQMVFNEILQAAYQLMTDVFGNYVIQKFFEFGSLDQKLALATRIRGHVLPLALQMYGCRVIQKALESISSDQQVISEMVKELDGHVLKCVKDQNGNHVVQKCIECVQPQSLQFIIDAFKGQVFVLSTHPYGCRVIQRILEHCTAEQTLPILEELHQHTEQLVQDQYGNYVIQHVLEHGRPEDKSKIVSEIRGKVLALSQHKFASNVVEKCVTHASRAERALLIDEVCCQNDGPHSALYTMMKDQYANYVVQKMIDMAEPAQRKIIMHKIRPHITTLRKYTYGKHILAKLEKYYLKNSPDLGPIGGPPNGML
UniProt Q14671: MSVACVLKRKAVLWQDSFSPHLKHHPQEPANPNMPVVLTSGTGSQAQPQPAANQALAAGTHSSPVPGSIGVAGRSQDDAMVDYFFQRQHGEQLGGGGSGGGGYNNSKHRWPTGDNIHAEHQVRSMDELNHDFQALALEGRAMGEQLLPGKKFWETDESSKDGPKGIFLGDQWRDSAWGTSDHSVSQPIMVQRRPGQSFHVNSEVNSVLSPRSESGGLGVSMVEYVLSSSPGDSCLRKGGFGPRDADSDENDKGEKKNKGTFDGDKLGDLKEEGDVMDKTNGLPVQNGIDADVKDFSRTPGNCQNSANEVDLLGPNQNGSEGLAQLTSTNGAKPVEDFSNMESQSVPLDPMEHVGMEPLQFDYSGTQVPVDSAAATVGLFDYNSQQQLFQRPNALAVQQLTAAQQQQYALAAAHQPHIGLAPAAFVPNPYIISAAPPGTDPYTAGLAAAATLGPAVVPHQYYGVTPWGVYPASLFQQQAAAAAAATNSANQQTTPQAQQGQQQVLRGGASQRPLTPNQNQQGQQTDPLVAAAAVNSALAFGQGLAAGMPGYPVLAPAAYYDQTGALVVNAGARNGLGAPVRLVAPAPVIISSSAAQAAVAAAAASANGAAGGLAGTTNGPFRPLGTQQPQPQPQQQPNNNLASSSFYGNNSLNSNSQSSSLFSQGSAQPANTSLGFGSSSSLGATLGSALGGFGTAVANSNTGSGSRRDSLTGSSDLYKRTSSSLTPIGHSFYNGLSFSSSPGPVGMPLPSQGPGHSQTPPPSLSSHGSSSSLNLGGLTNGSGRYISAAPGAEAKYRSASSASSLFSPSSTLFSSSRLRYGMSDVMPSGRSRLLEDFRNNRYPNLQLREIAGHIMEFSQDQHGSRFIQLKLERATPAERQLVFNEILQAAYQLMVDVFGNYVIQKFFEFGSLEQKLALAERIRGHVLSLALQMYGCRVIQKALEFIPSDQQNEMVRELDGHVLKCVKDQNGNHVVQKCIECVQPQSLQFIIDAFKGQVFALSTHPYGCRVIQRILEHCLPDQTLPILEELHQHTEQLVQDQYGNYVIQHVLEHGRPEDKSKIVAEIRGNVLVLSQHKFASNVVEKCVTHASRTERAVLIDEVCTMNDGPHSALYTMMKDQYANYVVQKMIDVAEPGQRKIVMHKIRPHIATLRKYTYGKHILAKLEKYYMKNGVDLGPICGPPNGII

Assay [1] deals with Pumilio homolog 2 (PUM2) (human (endogenous in HeLa S3)) (UniProt Q8TB72). As to the kind of experiment: co-IP; endogenous PUM1 or PUM2 captured from HeLa S3 cell extract (20 mg protein) with anti-PUM1 on protein G or anti-PUM2 on protein A sepharose beads; NT2 buffer with 30 mM EDTA, 1 mM DTT, RNase inhibitors; 6 hours at 4°C; eluted with SDS-EDTA; eluates immunoblotted with the alternate PUM …. In general terms: Immunoblotting shows a protein as a band on a membrane.

The target in assay [2] is Pumilio homolog 1 (PUM1) (human (endogenous in HeLa S3)) (UniProt Q14671). Described as above.

No constants are given. Whether binding was seen depends on the method and setting. In cells and extracts the contact can be indirect.

On to “Pumilio homolog 1 (PUM1) (from UniProt Q14671 1-1186)”, for which the binding result in assay [1] is “no binding”.
Regarding “Pumilio homolog 2 (PUM2) (from UniProt Q8TB72 1-1066)”, the binding entry in assay [2] was “no binding”.
